# Some of the results follow.
# B1: RobpsCRA (Robinia pseudoacacia) (protein)
# chain: IKGGYWYSGSGLAVSDINPSHFTHLFCAFADLDPNTNKLTISSSNAAAFSTFTQTVRAKNPSVKTLLSIGGGGGRALAAVFANMASQASRRKSFIDSSIQLARRNNFHGLDLDWEYPSSDIDKTNFASLIREWRAAVATESSTSGTPALLLSAAVGGSDQITPLKYYPGEAIANNLDWVNVMTYDLYTSDSYPTLTQPPAPLFYPRGIFSADEGITKWIQSGVPESKLALGLPFYGFKWRLSDPNNHGLFAPATQGLGAVKYKDIVNTGGQVEFDSTYVTNYCFKGTDWYGYDDTQSISAKVAYAKQRGLFGYFAWHIEQDSNWALS
# Experiments:
# Test in all cases: glycan array binding signal (z-score within array); higher = stronger binding
# Details in all cases: glycan notation: IUPAC condensed, linker removed
# [1] = target: Fuc(a1-2)Gal(b1-4)GlcNAc(b1-3)Gal(b1-4)GlcNAc(b1-3)Gal(b1-4)GlcNAc
# In short: (§1)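 Glycan array data came from 3228 arrays in the Consortium for Functional Glycomics database, and only arrays with an available protein sequence were kept. Glycan names were put into IUPAC-condensed notation, and columns mapping to the same glycan were averaged. The binding signal is a within-array Z-score, averaged across arrays of one protein sequence run at different concentrations or buffers and across linkers. A negative Z-score can be read as non-binding.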
# [2] = target: Fuc(a1-2)Gal(b1-4)GlcNAc(b1-3)GalNAc
# In short: as §1
# [3] = target: Fuc(a1-2)Gal(b1-4)GlcNAc(b1-3)[Fuc(a1-2)Gal(b1-4)GlcNAc(b1-6)]GalNAc
# In short: as §1
# [4] = target: Fuc(a1-2)Gal(b1-4)GlcNAc(b1-3)[Fuc(a1-3)[Gal(b1-4)]GlcNAc(b1-6)]Gal(b1-4)Glc
# In short: as §1
# [5] = target: Fuc(a1-2)Gal(b1-4)GlcNAc(b1-6)GalNAc
# In short: as §1
# [6] = target: Fuc(a1-2)Gal(b1-4)GlcNAc6S
# In short: as §1
# [7] = target: Fuc(a1-2)Gal(b1-4)[Fuc(a1-3)]GlcNAc
# In short: as §1
# [8] = target: Fuc(a1-2)Gal(b1-4)[Fuc(a1-3)]GlcNAc(b1-2)Man(a1-3)[Fuc(a1-2)Gal(b1-4)[Fuc(a1-3)]GlcNAc(b1-2)Man(a1-6)]Man(b1-4)GlcNAc(b1-4)[Fuc(a1-6)]GlcNAc
# In short: as §1
# [9] = target: Fuc(a1-2)Gal(b1-4)[Fuc(a1-3)]GlcNAc(b1-2)[Fuc(a1-2)Gal(b1-4)[Fuc(a1-3)]GlcNAc(b1-4)]Man(a1-3)[Fuc(a1-2)Gal(b1-4)[Fuc(a1-3)]GlcNAc(b1-2)Man(a1-6)]Man(b1-4)GlcNAc(b1-4)GlcNAc
# In short: as §1
# [10] = target: Fuc(a1-2)Gal(b1-4)[Fuc(a1-3)]GlcNAc(b1-3)Gal(b1-4)[Fuc(a1-3)]GlcNAc
# In short: as §1
# [11] = target: Fuc(a1-2)Gal(b1-4)[Fuc(a1-3)]GlcNAc(b1-3)Gal(b1-4)[Fuc(a1-3)]GlcNAc(b1-3)Gal(b1-4)[Fuc(a1-3)]GlcNAc
# In short: as §1
# [12] = target: Fuc(a1-2)Gal(b1-4)[Fuc(a1-3)]GlcNAc(b1-3)GalNAc
# In short: as §1
# [13] = target: Fuc(a1-2)Gal(b1-4)[Fuc(a1-3)]GlcNAc(b1-3)[Neu5Ac(a2-6)Gal(b1-4)GlcNAc(b1-6)]Gal(b1-4)Glc
# In short: as §1
# [14] = target: Fuc(a1-2)Gal3S(b1-4)GlcNAc
# In short: as §1
# [15] = target: Fuc(a1-2)Gal6S(b1-3)GlcNAc
# In short: as §1
# [16] = target: Fuc(a1-2)Gal6S(b1-3)GlcNAc6S
# In short: as §1
# Fuc(a1-2)Gal6S(b1-4)Glc = target: Fuc(a1-2)Gal6S(b1-4)Glc
# In short: as §1
# [17] = target: Fuc(a1-2)Gal6S(b1-4)Glc6S
# In short: as §1
# Fuc(a1-2)[Gal(a1-3)]Gal = target: Fuc(a1-2)[Gal(a1-3)]Gal
# In short: as §1
# [18] = target: Fuc(a1-2)[Gal(a1-3)]Gal(b1-3)GalNAc
# In short: as §1
# [19] = target: Fuc(a1-2)[Gal(a1-3)]Gal(b1-3)GalNAc(b1-3)Gal(a1-4)Gal(b1-4)Glc
# In short: as §1
# [20] = target: Fuc(a1-2)[Gal(a1-3)]Gal(b1-3)GlcNAc
# In short: as §1
# [21] = target: Fuc(a1-2)[Gal(a1-3)]Gal(b1-3)GlcNAc(b1-2)Man(a1-3)[Fuc(a1-2)[Gal(a1-3)]Gal(b1-3)GlcNAc(b1-2)Man(a1-6)]Man(b1-4)GlcNAc(b1-4)GlcNAc
# In short: as §1
# [22] = target: Fuc(a1-2)[Gal(a1-3)]Gal(b1-3)GlcNAc(b1-2)Man(a1-3)[Fuc(a1-2)[Gal(a1-3)]Gal(b1-3)GlcNAc(b1-2)Man(a1-6)]Man(b1-4)GlcNAc(b1-4)[Fuc(a1-6)]GlcNAc
# In short: as §1
# [23] = target: Fuc(a1-2)[Gal(a1-3)]Gal(b1-3)GlcNAc(b1-3)GalNAc
# In short: as §1
# [24] = target: Fuc(a1-2)[Gal(a1-3)]Gal(b1-3)GlcNAc(b1-6)GalNAc
# In short: as §1
# [25] = target: Fuc(a1-2)[Gal(a1-3)]Gal(b1-4)Glc
# In short: as §1
# [26] = target: Fuc(a1-2)[Gal(a1-3)]Gal(b1-4)GlcNAc
# In short: as §1
# [27] = target: Fuc(a1-2)[Gal(a1-3)]Gal(b1-4)GlcNAc(b1-2)Man
# In short: as §1
# [28] = target: Fuc(a1-2)[Gal(a1-3)]Gal(b1-4)GlcNAc(b1-2)Man(a1-3)[Fuc(a1-2)[Gal(a1-3)]Gal(b1-4)GlcNAc(b1-2)Man(a1-6)]Man(b1-4)GlcNAc(b1-4)GlcNAc
# In short: as §1
binder,measurement,setting,value
B1,glycan array binding signal (z-score),[1],-0.287
same,glycan array binding signal (z-score),[2],-0.611
same,glycan array binding signal (z-score),[3],-0.359
same,glycan array binding signal (z-score),[4],-0.598
same,glycan array binding signal (z-score),[5],-0.674
same,glycan array binding signal (z-score),[6],0.244
same,glycan array binding signal (z-score),[7],-0.156
same,glycan array binding signal (z-score),[8],-0.099
same,glycan array binding signal (z-score),[9],0.212
same,glycan array binding signal (z-score),[10],-0.131
same,glycan array binding signal (z-score),[11],-0.49
same,glycan array binding signal (z-score),[12],0.708
same,glycan array binding signal (z-score),[13],-0.512
same,glycan array binding signal (z-score),[14],-0.007
same,glycan array binding signal (z-score),[15],-0.314
same,glycan array binding signal (z-score),[16],0.966
same,glycan array binding signal (z-score),Fuc(a1-2)Gal6S(b1-4)Glc,-0.627
same,glycan array binding signal (z-score),[17],-0.44
same,glycan array binding signal (z-score),Fuc(a1-2)[Gal(a1-3)]Gal,0.41
same,glycan array binding signal (z-score),[18],-0.447
same,glycan array binding signal (z-score),[19],-0.435
same,glycan array binding signal (z-score),[20],-0.443
same,glycan array binding signal (z-score),[21],-0.684
same,glycan array binding signal (z-score),[22],-0.838
same,glycan array binding signal (z-score),[23],-0.064
same,glycan array binding signal (z-score),[24],-0.743
same,glycan array binding signal (z-score),[25],-0.14
same,glycan array binding signal (z-score),[26],-0.581
same,glycan array binding signal (z-score),[27],-0.319
same,glycan array binding signal (z-score),[28],0.466

# Pulled one by one from the list above:
binder,measurement,setting,value
B1,glycan array binding signal (z-score),[22],-0.838
same,glycan array binding signal (z-score),[15],-0.314

# — the supplement of paper PMC8728848
